At least one structure is not confirmed: it was looked up by name or label, or the drawing left a doubt.
Test system: blastopore upper lip explant: insulin, XlHbox8, NCAM, ms-actin expression
Test: Expression of tissue-specific genes in explant treated with retinoic acid (RT-PCR, southern hybridization)
Type: cell-based, Xenopus
Details: 10^−4 M, cultured three days, vs untreated blastopore upper lip

## CC1=C(/C=C/C(C)=C/C=C/C(C)=C/C(=O)O)C(C)(C)CCC1 [Retinoic acid, retinoic acid]
  expression of NCAM (neural marker gene): suppressed
  expression of XlHbox8 (pancreas-specific gene): strongly promoted
  expression of insulin (pancreas-specific gene): strongly promoted
  expression of ms-actin (muscle marker gene): suppressed
